Values from PubChem BioAssay AID1259405 (NCATS, 2018).
Aim: 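Silenced genes that increase secreted GFP made by CHO cells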 (primary screen). System: Chinese hamster CHO-K1 ovary cells with stable secreted eGFP expression. Reagent: single siRNA against mouse genes, 0.8 pmol siRNA per well (2 µl of 400 nM stock). Duration: 3 days. Detection: 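Percent of the per-plate non-targeting control median for intracellular GFP per well by laser scanning cytometry and for cell viability by ATP luminescence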. Reading the numbers: GFP, % of control: higher = more GFP per well, higher productivity; viability (ATP), % of control: higher = more viable cells (more ATP). Hit rule: 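Called active when intracellular GFP, relative to negative control, is at or above 120%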.
Here is one part, drawn at random, of about 50,000 reagents. About 4,000 of them (8%) were called active. 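Mouse siRNA library applied to hamster cells; one well for each siRNA.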 The numbers tell different reagents against one gene apart.

gene symbol	siRNA no.	GFP, % of control	viability (ATP), % of control	activity call
Nms	1	52.6	47	inactive
Nms	2	69.6	76.6	inactive
Nms	3	101	61.6	inactive
Tcf19	1	100	67.3	inactive
Tcf19	2	77	97.2	inactive
Tcf19	3	83.6	79.7	inactive
Cyp20a1	1	62.8	39.8	inactive
Cyp20a1	2	81.3	109	inactive
Cyp20a1	3	61.2	77.8	inactive
Or8d2	1	80.2	27	inactive
Or8d2	2	71	85.8	inactive
Or8d2	3	88.7	69.7	inactive
Sez6	1	45.9	47.1	inactive
Sez6	2	40.6	77.4	inactive
Sez6	3	100	90.1	inactive
Hebp2	1	71.3	74.7	inactive
Hebp2	2	34.6	44.2	inactive
Hebp2	3	76.1	46.4	inactive

Single entries from above:
Under “viability (ATP), % of control”, Cyp20a1 #3 shows 77.8
Value for Or8d2 #1 under “viability (ATP), % of control”: 27
Entry for Hebp2 #1 in “viability (ATP), % of control”: 74.7

Continued.
gene symbol	siRNA no.	GFP, % of control	viability (ATP), % of control	activity call
Gm839	1	106	86.2	inactive
Gm839	2	73.3	66.7	inactive
Gm839	3	96.5	72.1	inactive
Cxxc1	1	49.8	59.9	inactive
Cxxc1	2	70.7	71.5	inactive
Cxxc1	3	52.6	63.5	inactive
Bud13	1	85.9	88.4	inactive
Bud13	2	106	65.8	inactive
Bud13	3	126	95	active
Jak3	1	82.4	61.5	inactive
Or51v14	1	76	72.1	inactive
Or51v14	2	62.1	50.6	inactive
Or51v14	3	39.1	95.8	inactive
Dock4	1	101	82.2	inactive
Dock4	2	90.1	87.5	inactive
Dock4	3	62.6	67.3	inactive
